Reference: paper PMC4409382, “Structural Analysis of the 14-3-3ζ/Chibby Interaction Involved in Wnt/β-Catenin Signaling” (PLoS ONE, 2015)
No constants are given. Whether binding was seen depends on the method and setting.

T1: 14-3-3ζ (human, full-length) (human, UniProt P63104 1-245)
T1 construct: N-terminal glycine retained after TEV cleavage of the His tag; 14-3-3ζ, human, ORF bought from GeneCopoeia, in Gateway pDEST17; full-length; Dimer in the crystal; the ITC stoichiometry counts on the 14-3-3 monomer; also called WT 14-3-3ζ; source: E. coli BL21 (DE3) pLysS, purified (Ni Sepharose, TEV cleavage, second Ni Sepharose pass); not shown: His tag, N-terminal, cleaved
T1 sequence: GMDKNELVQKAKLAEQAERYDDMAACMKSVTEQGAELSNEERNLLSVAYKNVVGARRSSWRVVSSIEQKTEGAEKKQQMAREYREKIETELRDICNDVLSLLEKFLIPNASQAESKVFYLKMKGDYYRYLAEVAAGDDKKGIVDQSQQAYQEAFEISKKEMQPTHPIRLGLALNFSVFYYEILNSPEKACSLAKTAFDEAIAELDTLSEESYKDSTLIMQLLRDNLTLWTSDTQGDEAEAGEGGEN


Target: T1, 14-3-3ζ (human, full-length)
Experiment: condition: ~1-2 mM peptide titrated into ~100-200 uM 14-3-3ζ (typical experiment); ITC; VP-ITC, 25°C; ~1-2 mM peptide titrated in 5 uL aliquots into ~100-200 uM 14-3-3ζ in the cell; 50 mM sodium phosphate, 100 mM NaCl, 1 mM DTT, pH 6.8; one-site model; in duplicate; both purified

binding | Binder
no binding | KTPPRKSADLSNL [Cby S20D 13-mer]
no binding | KTPPRKSAELSNL [Cby S20E 13-mer]
